For experiment [1], the target named is serpin-5, yeast two-hybrid fusion (H. armigera). The experiment in a line: two-hybrid; yeast AH109 co-transformed with serpins in pGBK7 and cSPs in pGADT7; growth on SD-Leu-Trp-His medium with X-gal.
Experiment [2] concerns the target Helicoverpa armigera prophenoloxidase 2 (H. armigera (endogenous in larval hemolymph)) (UniProt Q2VIY6). Description: co-purification from hemolymph, SDS-PAGE and immunoblot; PPO purified from hemolymph of naive 5th instar larvae (ammonium sulfate, hydroxyapatite, Con A, Phenyl Sepharose, Superdex 200); SDS-PAGE and immunoblot with PPO1 and PPO2 antibodies. A general note: A western blot detects proteins with antibodies after separation by electrophoresis.

Sequences of proteins named here, by UniProt entry; tags and fusion partners are left off. A change or cut given only in a name is not applied to a line headed by its entry.
UniProt A0A290U614: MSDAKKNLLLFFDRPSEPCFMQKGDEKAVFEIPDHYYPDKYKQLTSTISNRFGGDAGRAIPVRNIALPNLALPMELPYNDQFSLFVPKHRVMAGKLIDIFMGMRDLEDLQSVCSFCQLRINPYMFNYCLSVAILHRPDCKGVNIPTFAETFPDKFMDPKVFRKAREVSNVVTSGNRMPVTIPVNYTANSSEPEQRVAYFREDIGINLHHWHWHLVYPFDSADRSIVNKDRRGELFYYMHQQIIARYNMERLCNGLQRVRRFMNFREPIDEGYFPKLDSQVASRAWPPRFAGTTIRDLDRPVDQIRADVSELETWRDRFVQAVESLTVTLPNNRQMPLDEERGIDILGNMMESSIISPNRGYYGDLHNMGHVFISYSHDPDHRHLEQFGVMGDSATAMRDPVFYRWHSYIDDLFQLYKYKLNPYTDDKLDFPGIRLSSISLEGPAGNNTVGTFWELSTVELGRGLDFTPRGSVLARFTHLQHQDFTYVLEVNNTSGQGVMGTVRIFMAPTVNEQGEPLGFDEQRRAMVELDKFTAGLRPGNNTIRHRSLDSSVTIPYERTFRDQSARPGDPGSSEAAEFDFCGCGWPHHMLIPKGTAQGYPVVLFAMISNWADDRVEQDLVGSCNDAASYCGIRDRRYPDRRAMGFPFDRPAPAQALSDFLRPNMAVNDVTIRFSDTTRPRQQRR

Experiment [3] concerns the target serpin-9, yeast two-hybrid fusion (H. armigera). The experiment in a line: two-hybrid; yeast AH109 co-transformed with serpins in pGBK7 and cSPs in pGADT7; growth on SD-Leu-Trp-His medium with X-gal.

From paper PMC5633200 come the findings set out here.

These are yes or no findings as the source states them, for the method shown. A result given as binding can be weak or reduced; the word gives no strength. For some of these results: Binding seen in cells or lysates may run through a third protein.

As for “cSP4, yeast two-hybrid fusion (from UniProt A0A290U6G2) (enzyme)”, the binding result in experiment [1] is “binds”.

In the case of “Helicoverpa armigera prophenoloxidase 1 (from UniProt A0A290U614) (enzyme)”, the binding entry in experiment [2] is “binds”.

As for “cSP29, yeast two-hybrid fusion (from UniProt A0A290U617) (enzyme)”, the binding result in experiment [3] is given as “binds”. With “cSP6, yeast two-hybrid fusion (from UniProt A0A290U627) (enzyme)”, the binding result in experiment [3] is “binds”.
